From the supplement of paper PMC7858590
Whole data set: some 3,800 compounds, median “cell shape (eccentricity) Z-score vs DMSO control” near 1.1, cut for the lowest 2% near -4.7. This is one part of the list.

system: human monocyte-derived macrophages (M0); test: cell shape (eccentricity) Z-score vs DMSO control; higher = more elongated, M2-like morphology; details: 20 µM; 24 h; macrophage state: M0 (M-CSF)
Protocol: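 Primary human monocyte-derived macrophages (M-CSF differentiated, pooled from 4 donors, 5000 cells/well in 384-well plates) were treated with each compound at 20 uM for 24 h, then fixed and stained with phalloidin/DAPI and imaged on an Opera Phenix (6 fields, about 1000 cells/well). Cell eccentricity was measured with CellProfiler, and a Z-score (t-test) was computed against 4 DMSO control wells in the same row. Negative values mean round (M1-like) cells and positive values mean elongated (M2-like) cells; the paper's hit cutoffs are Z <= -4 (M1) and Z >= 6 (M2). Scale: negative = round, M1-like.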

**Q.** Which “cell shape (Z-score)” value does the source give for `CN(C(=O)Cc1ccccc1)C(CN1CCCC1)c1ccccc1` (stereo not given) here?
**A.** 1.47

**Q.** `C[C@]12CC[C@H](OC3OC(O)C(O)C(O)C3O)C=C1CCC1C2CC[C@]2(C)[C@@H](c3ccc(=O)oc3)CC[C@]12O` (stereo not given in full) was tested. Which “cell shape (Z-score)” value did it give?
**A.** 2.21

**Q.** With `CC(CO)NC(=O)C1C=C2c3cccc4[nH]cc(c34)C[C@H]2N(C)C1` (stereo not given in full) as the compound, how does the “cell shape (Z-score)” value read?
**A.** 0.123

**Q.** With `NCCc1c[nH]c2ccc(C(N)=O)cc12` as the compound, how does the “cell shape (Z-score)” value read?
**A.** 0.46

**Q.** With `COC[C@H]1OC(=O)c2coc3c2[C@@]1(C)C1=C(C3=O)C2CCC(=O)[C@@]2(C)C[C@H]1OC(C)=O` (stereo not given in full) as the compound, how does the “cell shape (Z-score)” value read?
**A.** 0.813

**Q.** `COc1ccc2c3c1O[C@H]1[C@@H](O)C=C[C@H]4C(C2)N(C)CCC341` (stereo not given in full) was tested. Which “cell shape (Z-score)” value did it give?
**A.** 0.81

**Q.** Which “cell shape (Z-score)” value does the source give for `C[C@H]1O[C@@H](O[C@H]2CC[C@]3(CO)C4CC[C@]5(C)[C@@H](C6=CC(=O)OC6)CC[C@]5(O)C4CC[C@H]3C2)[C@H](O)[C@H](O)[C@@H]1O` (stereo not given in full) here?
**A.** 1.31

**Q.** With `CCCCCCC(=O)CCCCCC/C=C/C[C@H](O)[C@@H](O)C(N)(CO)C(=O)O` (stereo not given in full) as the compound, how does the “cell shape (Z-score)” value read?
**A.** -1.3

**Q.** With `C=CCN1CCC23c4c5ccc(O)c4OC2C(=NNC(=O)c2ccccc2)CCC3(O)C1C5` (stereo not given) as the compound, how does the “cell shape (Z-score)” value read?
**A.** 2.96

**Q.** Which “cell shape (Z-score)” value does the source give for `COc1cc([C@@H]2c3cc4c(cc3[C@H](O)[C@H]3COC(=O)[C@H]23)OCO4)cc(OC)c1OC` here?
**A.** 8.07

**Q.** With `CC1OC(OC2CC(O)C3(CO)C4C(O)CC5(C)C(C6=CC(=O)OC6)CCC5(O)C4CCC3(O)C2)C(O)C(O)C1O` (stereo not given) as the compound, how does the “cell shape (Z-score)” value read?
**A.** 0.257

**Q.** `CCC1(C2=NCCN2)Cc2ccccc2O1` (stereo not given) was tested. Which “cell shape (Z-score)” value did it give?
**A.** 1.25

**Q.** `O=C(NC(=O)c1c(F)cccc1F)Nc1cc(Cl)c(OC(F)(F)C(F)C(F)(F)F)cc1Cl` (stereo not given) was tested. Which “cell shape (Z-score)” value did it give?
**A.** -1.05

**Q.** `C[C@]12CCC(=O)C=C1CC[C@@H]1C2CC[C@]2(C)C(=O)CCC12` (stereo not given in full) was tested. Which “cell shape (Z-score)” value did it give?
**A.** 6.85

**Q.** How did the “cell shape (Z-score)” value turn out when `CCOc1cncc(C=CCCNC)c1` was run?
**A.** 1.66

**Q.** `Cc1cc(O)cc2oc(=O)c3c(O)cc(O)cc3c12` was tested. Which “cell shape (Z-score)” value did it give?
**A.** 1.96

**Q.** `C[C@@H]1O[C@@H](O[C@H]2C[C@@H](O)[C@]3(CO)C4C(CC[C@]3(O)C2)[C@@]2(O)CC[C@H](C3=CC(=O)OC3)[C@@]2(C)C[C@H]4O)[C@H](O)[C@H](O)[C@H]1O` (stereo not given in full) was tested. Which “cell shape (Z-score)” value did it give?
**A.** -0.127

**Q.** How did the “cell shape (Z-score)” value turn out when `C/C=C(\C)C(=O)OC1C(C)=C2C(C1OC(=O)CCCCCCC)C(C)(OC(C)=O)CC(OC(=O)CCC)C1(O)C2OC(=O)C1(C)O` (stereo not given) was run?
**A.** 0.657

**Q.** For `CN1CC[C@@H]2CN3CCc4cccc(c43)[C@@H]2C1`, which “cell shape (Z-score)” value is on record?
**A.** 1.32

**Q.** `C[C@]12CCC3[C@@H](CC[C@@]45O[C@@H]4C(=O)C(C#N)C[C@]35C)C1CC[C@@H]2O` (stereo not given in full) was tested. Which “cell shape (Z-score)” value did it give?
**A.** -3.22

**Q.** For `CC(C)(O)c1cc(O)c2c(c1)CCC1C(C)(C(=O)O)CCCC21C` (stereo not given), which “cell shape (Z-score)” value is on record?
**A.** 0.93

**Q.** For `CN(C)C(=O)Oc1cc(OC(=O)N(C)C)cc(C(O)CNC(C)(C)C)c1` (stereo not given), which “cell shape (Z-score)” value is on record?
**A.** 2.11

**Q.** How did the “cell shape (Z-score)” value turn out when `C[C@]12C=CC(=O)C=C1CCC1C2CC[C@]2(C)C(=O)CCC12` (stereo not given in full) was run?
**A.** 3.15

**Q.** How did the “cell shape (Z-score)” value turn out when `CN(C)C(=O)Oc1cccc([N+](C)(C)C)c1` was run?
**A.** 2.05

**Q.** How did the “cell shape (Z-score)” value turn out when `CCCN1CCO[C@@H]2c3cc(O)ccc3OC[C@H]21` was run?
**A.** 1.71

**Q.** Which “cell shape (Z-score)” value does the source give for `OC(Cc1ccncc1)C(Cl)(Cl)Cl` (stereo not given) here?
**A.** 2.5

**Q.** For `COc1cc(-n2c(=S)[nH]c3ccccc3c2=O)c(Cl)cc1Cl`, which “cell shape (Z-score)” value is on record?
**A.** 1.19

**Q.** How did the “cell shape (Z-score)” value turn out when `O=c1[nH]c2ccccc2n1CCCN1CCC(n2c(=O)[nH]c3cc(Cl)ccc32)CC1` was run?
**A.** -1.03

**Q.** For `CCCn1c(C)c(C(=O)c2cccc3ccccc23)c2ccccc21`, which “cell shape (Z-score)” value is on record?
**A.** 1.57

**Q.** How did the “cell shape (Z-score)” value turn out when `C=CC[C@]1(O)CCC2C3CCC4=CC(=O)CCC4=C3C=C[C@@]21C` (stereo not given in full) was run?
**A.** 1.08

**Q.** How did the “cell shape (Z-score)” value turn out when `CCNC(=O)C[C@@H]1N=C(c2ccc(Cl)cc2)c2cc(OC)ccc2-n2c(C)nnc21` was run?
**A.** 6.26

**Q.** For `C=C(C)[C@@H]1[C@H]2OC(=O)[C@@H]1[C@]1(O)C[C@H]3O[C@]34C(=O)O[C@H]2[C@]14C`, which “cell shape (Z-score)” value is on record?
**A.** 5.17

**Q.** For `C=C1[C@@H](C)[C@H]2[C@H](Cc3ccccc3)NC(=O)[C@]23OC(=O)/C=C/[C@H](O)CCC[C@@H](C)C/C=C/[C@H]3[C@@H]1O`, which “cell shape (Z-score)” value is on record?
**A.** -24.4

**Q.** How did the “cell shape (Z-score)” value turn out when `CCCN(CCC)C1Cc2cc(OC)c(OC)cc2C1` was run?
**A.** 0.0873

**Q.** How did the “cell shape (Z-score)” value turn out when `COc1cc2c3cc1Oc1c(OC)c(OC)cc4c1[C@@H](Cc1cccc(c1)Oc1ccc(c(O)c1)C[C@@H]3N(C)CC2)N(C)CC4` was run?
**A.** 4.46

**Q.** `CO[C@H]1[C@H](O)[C@H](O[C@H]2CC[C@]3(C)C4CC[C@]5(C)[C@H](C6=CC(=O)OC6)CC[C@]5(O)C4CC[C@@H]3C2)O[C@@H](C)[C@@H]1O[C@@H]1O[C@H](CO[C@@H]2O[C@H](CO)[C@@H](O)[C@H](O)[C@H]2O)[C@@H](O)[C@H](O)[C@H]1O` (stereo not given in full) was tested. Which “cell shape (Z-score)” value did it give?
**A.** -3.4

**Q.** `CC1=CC[C@@H]2[C@@H](C1)c1c(O)cc(CC#CCCCNS(C)(=O)=O)cc1OC2(C)C` was tested. Which “cell shape (Z-score)” value did it give?
**A.** 2.35

**Q.** How did the “cell shape (Z-score)” value turn out when `C[C@H](Cc1ccc(OCC(=O)O)cc1)NC[C@H](O)c1cccc(Cl)c1` was run?
**A.** 1.57

**Q.** For `COc1ccc(C(=O)c2c(C)n(CCN3CCOCC3)c3ccccc23)cc1`, which “cell shape (Z-score)” value is on record?
**A.** -0.409

**Q.** `N#CC(C#N)=Cc1cc(O)c(O)c([N+](=O)[O-])c1` was tested. Which “cell shape (Z-score)” value did it give?
**A.** -0.026

**Q.** Which “cell shape (Z-score)” value does the source give for `O=C1NCN(c2ccccc2)C12CCN(CC1COc3ccccc3O1)CC2` (stereo not given) here?
**A.** 2.31

**Q.** With `c1ccc2c(c1)[nH]c1cnccc12` as the compound, how does the “cell shape (Z-score)” value read?
**A.** 0.646

**Q.** Which “cell shape (Z-score)” value does the source give for `Cc1cc(OC(=O)N2CCCCC2)c(C(C)C)cc1[N+](C)(C)C` here?
**A.** 0.65

**Q.** Which “cell shape (Z-score)” value does the source give for `CCC1CC2CC3(C(=O)OC)c4[nH]c5ccc(OC)cc5c4CCN(C2=O)C13` (stereo not given) here?
**A.** 0.374

**Q.** `COC(=O)C12CC3CC(C(C)O)C1N(CCc1c2[nH]c2cc(OC)ccc12)C3` (stereo not given) was tested. Which “cell shape (Z-score)” value did it give?
**A.** 1.23
